Experimental data taken from the supplement of paper PMC3334620.
Whole data set: some 33,000 sequences, median “E-score (-0.5 to 0.5)” near -0.0034, cut for the highest 2% near 0.25. The list shows a part of the results.

Each sequence was assayed against T1, Yap3 (UniProt P38749) (assay: PBM E-score (8-mer binding enrichment) (E-score (-0.5 to 0.5)); higher = stronger / more preferred TF binding). Conditions: protein concentration: 100 nM; construct: GST-full length.
T1 sequence: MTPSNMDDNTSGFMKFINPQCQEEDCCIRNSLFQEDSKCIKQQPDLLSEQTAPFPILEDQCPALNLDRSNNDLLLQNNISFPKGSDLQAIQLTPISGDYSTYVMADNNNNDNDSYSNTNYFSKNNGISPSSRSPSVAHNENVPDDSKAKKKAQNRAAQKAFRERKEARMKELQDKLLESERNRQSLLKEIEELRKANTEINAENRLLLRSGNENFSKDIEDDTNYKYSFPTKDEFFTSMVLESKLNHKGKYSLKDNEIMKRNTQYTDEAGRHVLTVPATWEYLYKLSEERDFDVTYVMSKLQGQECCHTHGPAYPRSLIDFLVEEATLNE
Summary of the method: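 Detection of bound protein used fluorescent anti-GST, with scans normalised by masliner. The proteins were GST-tagged yeast transcription factors applied at about 100-200 nM to universal all-10-mer Agilent arrays made double-stranded by primer extension. Each ungapped eight-base word, pooled with its reverse complement, was scored with an E-score from the Universal PBM Analysis Suite.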

Sequence | PBM E-score
CGGCGACA | -0.12
CTTCAGCA | -0.0276
AAGACTAG | -0.256
GTCTTGAA | 0.0256
AAGCCCGT | -0.204
GCCGACAA | -0.0608
ATCTTTGA | 0.00662
GCACAGCC | -0.197
ACCCGATG | 0.143
TAAAAACA | 0.246
ATTCTATC | 0.0809
AGGACACC | -0.156
AATAGCAG | 0.026
AATCGGTG | -0.0385
ACCTCGAC | -0.0271
CTAGGGTA | -0.167
GTTCCAAA | 0.0925
GATCATGC | -0.0872
AATAAACA | 0.245
AGGTGGGA | -0.204
GGCATATA | 0.268
ACCGCTGA | 0.0105
AATTATAT | 0.213
AAAGTGGG | 0.149
CAGCTAGC | -0.177

Sequence | PBM E-score
CGCGCGAG | 0.0248
AGAACAAA | 0.291
GCTCTATA | -0.108
AGTCCTGA | -0.099
TTTAGAAA | 0.16
CGATCTCC | -0.125
CGGTTTAC | -0.0713
CTGACTGA | -0.0763
AATGGACT | -0.00565
CGTAACCA | 0.17
CCTTCCCC | -0.253
CGGAACCG | -0.136
AAACGTTA | 0.179
CCAAGGGC | -0.27
ACACCAGA | 0.11
GACCTGAA | 0.0077
CTAATCTC | 0.134
TCAGCTAA | 0.0752
AATGGGAT | -0.0702
CACGAGAG | -0.138
GATACATA | 0.214
CGCATGTC | -0.0845
CTGAGGCA | -0.0933
CAACTCAA | 0.198
CGTAAAAG | 0.0794

Sequence | PBM E-score
CGATGCGC | -0.0942
AACGATAT | 0.269
ATACTATA | 0.191
AAAATCCG | 0.0654
GCGTCTGA | -0.1
AAAATCGA | 0.168
ATAGCAAG | 0.149
CACTAAGC | -0.0365
AGCTTGAT | -0.0351
GCGTCAAC | 0.0498
ATGATGGG | -0.00808
ACGAGACG | -0.0604
GTTTGCCA | 0.0636
AAACCCAT | 0.216
AGTGCCGG | -0.153
AACCGTGT | 0.0213
CGGGGACA | -0.153
GTTAGTCA | 0.33
ACTGCACC | -0.042
CACGCAAG | 0.169
TTACGGAA | 0.266
CGATCTTA | 0.0188
CGAAGAGC | -0.0308
ACGGTCCT | -0.225
CATTGAGC | -0.0237

Sequence | PBM E-score
TAGTCAAA | 0.222
CTTAAGAC | -0.117
ATGCGCTA | -0.00231
CCGCGTAA | 0.0463
CGCGGCAG | 0.029
CCCACGTC | -0.122
CTTGCACA | 0.0995
GACAAAGC | 0.0522
AATGAGGG | -0.0674
GACCCCTA | -0.229
GATCGAGC | -0.0568
AGCCCGAC | -0.102
ACCTATCT | 0.0909
ACTGTTTC | -0.0552
ATAAGCGC | 0.105
ATGAGTCC | -0.079
AAATTTGG | 0.0997
CAGTTCCG | -0.086
AGACCCCG | -0.0662
CTGCACTC | 0.0431
GCCAGTCC | -0.343
AGAGCCAT | -0.0046
CGTCTAAG | -0.0196
AGCTGGTC | -0.158
AACCTATA | 0.193

Sequence | PBM E-score
CTTGTCGA | -0.0298
ACTGTCCA | -0.128
CCAAGACG | -0.148
GGAGTAGA | 0.0978
ACGCGTAT | 0.196
AGCCTAAG | -0.245
TATCGATA | 0.0263
ACCTGGAT | -0.167
CACACAGA | -0.101
GTTGTCTA | 0.0881
ATCGACAG | -0.00949
CTCAGCGA | 0.125
CCTCGACC | -0.128
AAGCGTGA | 0.0553
CCGGATGA | -0.0374
AGCAAGCC | -0.219
CAAACGAA | 0.0114
AGTGGTCA | -0.0325
ATGAGGTC | -0.0958
ACTCAAAG | -0.0186
AACAAACT | 0.0897
CCACCCGG | -0.298
AGACAAAC | 0.0172
CGTCGAAC | -0.194
AACAGGTA | 0.162

Sequence | PBM E-score
AATAGGCC | -0.0862
CTAGTGGC | -0.107
CTACCGAG | -0.1
ACATGCAG | 0.0576
CTTTAATA | 0.285
CAGGATTC | -0.0296
GCACCTTA | -0.00406
CAGCAGGC | -0.205
CGGACTAC | -0.048
ACTTAGAG | -0.107
AGCGCAGG | -0.185
ACAGTCTC | -0.178
CGATCACG | 0.176
CGGCCACG | -0.138
CGCGAAGC | 0.0371
GAGGGTAC | -0.139
AGGTGATC | 0.0941
ACGTCCAT | -0.0437
ATCCTACC | -0.068
CTCGCAGA | -0.0139
AGCCGGTG | -0.152
ATTGAAAC | 0.155
TCCGCTCA | -0.0153
CACTCGTA | -0.0977
GGGTTACA | -0.0039

Rewritten with each value named: part of the list above.
CGGTTTAC
  PBM E-score: -0.0713
CTGACTGA
  PBM E-score: -0.0763
AATGGACT
  PBM E-score: -0.00565

Following part.

Sequence | PBM E-score
ACGTATTA | 0.282
GGAATTGA | 0.119
ACTAATGA | 0.264
CCGGATCC | 0.018
CCCAGTCA | -0.279
AAGCATGT | 0.111
GATAAAGC | 0.142
CAGCGGTC | -0.214
ACTTCCGG | 0.0969
AAGGGAGC | -0.27
ACCTGAAA | -0.0139
AGTACATG | 0.164
GTAGTCGA | 0.111
ACTATGTG | -0.0195
ATTACTGG | -0.0154
GGGTGTAC | -0.0774
ACCTGACA | 0.0922
ATTTTTAG | -0.0279
ACTCACGA | -0.133
CACAATCC | 0.00037
AAGGAGCA | -0.0902
CTCGACAG | -0.152

Quoted from the listing:
PBM E-score with ACTTCCGG is entered as 0.0969
PBM E-score with ATTTTTAG is entered as -0.0279
PBM E-score with GGGTGTAC is entered as -0.0774
